Measured values: paper PMC10413764
No constants are given. Whether binding was seen depends on the method and setting. In cells and extracts the contact can be indirect. Some results given as binding are weak or reduced against the parent protein; the word gives no strength.

The chains behind the UniProt entries cited, without tags or fusion partners.
UniProt P10275: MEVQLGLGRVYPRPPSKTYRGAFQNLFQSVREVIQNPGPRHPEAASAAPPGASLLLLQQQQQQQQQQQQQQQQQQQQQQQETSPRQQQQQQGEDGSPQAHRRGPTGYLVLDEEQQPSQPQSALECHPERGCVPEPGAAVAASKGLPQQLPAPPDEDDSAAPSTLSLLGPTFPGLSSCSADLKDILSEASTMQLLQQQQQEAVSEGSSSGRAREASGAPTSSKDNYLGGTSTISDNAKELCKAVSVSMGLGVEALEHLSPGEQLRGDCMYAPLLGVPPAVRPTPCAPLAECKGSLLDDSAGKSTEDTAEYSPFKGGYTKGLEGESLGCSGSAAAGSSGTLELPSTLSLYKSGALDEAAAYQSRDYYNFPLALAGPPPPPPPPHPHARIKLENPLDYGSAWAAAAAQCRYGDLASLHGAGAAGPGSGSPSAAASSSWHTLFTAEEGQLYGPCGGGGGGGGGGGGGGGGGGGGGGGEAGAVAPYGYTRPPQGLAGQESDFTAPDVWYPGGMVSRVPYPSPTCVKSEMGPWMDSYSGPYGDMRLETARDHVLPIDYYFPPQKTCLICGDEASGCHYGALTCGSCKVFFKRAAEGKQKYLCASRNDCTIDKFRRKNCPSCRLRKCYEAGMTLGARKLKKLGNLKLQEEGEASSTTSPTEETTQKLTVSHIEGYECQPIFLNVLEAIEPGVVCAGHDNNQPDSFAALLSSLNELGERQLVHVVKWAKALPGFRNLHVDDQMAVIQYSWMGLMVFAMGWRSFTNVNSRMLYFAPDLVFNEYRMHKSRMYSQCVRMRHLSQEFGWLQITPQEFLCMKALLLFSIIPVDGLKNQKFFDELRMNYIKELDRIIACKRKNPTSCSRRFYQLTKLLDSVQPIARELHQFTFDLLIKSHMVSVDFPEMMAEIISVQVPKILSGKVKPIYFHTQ
UniProt Q15388: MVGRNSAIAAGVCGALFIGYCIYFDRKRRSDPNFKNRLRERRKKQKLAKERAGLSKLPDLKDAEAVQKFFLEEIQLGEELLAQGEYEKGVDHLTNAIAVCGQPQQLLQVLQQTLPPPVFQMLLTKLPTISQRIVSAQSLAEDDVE

How the values were obtained:
[1] = target: Flag-AR (androgen receptor, from pCMV-AR-Flag) (UniProt P10275); test: co-IP; HEK293T cells co-transfected with plasmids expressing Flag-AR and His-TOMM20 (wild type or mutants); extracts in RIPA buffer with protease inhibitors, antibody at 4 °C overnight, protein A/G-magnetic beads 2 h; which antibody precipitated is not told
GST-AR(FL) = GST-AR(FL) (UniProt P10275); test: pull-down; GST fusion proteins on glutathione-sepharose resins incubated with cell lysates of LNCaP cells (overexpressing TOMM20) at 4 °C for 12 h, washed four times, immunoblot with anti-TOMM20 antibody; only the target purified

Substance | binding [1] | binding (GST-AR(FL))
His/Myc-TOMM20 (translocase of the outer mitochondrial membrane complex subunit 20), wild type (from UniProt Q15388 1-145) | binds | –
TOMM20 in cell lysates of LNCaP cells overexpressing TOMM20 (from UniProt Q15388 1-145) | – | binds
